Data as given in PubChem BioAssay AID1259354 (Paczesny and Yang Labs, IUPUI and University of Michigan, 2018).
Hit rate of the full screen: of about 78,000 compounds, about 1,800 (2.3%) were called active. Inconclusive means that the source gave no clear call. Such entries were picked first, then a sample of the others. No stated cut-off is given here; in the data, active means inhibition above about 30%; inconclusive means mostly about 10% to 28%; inactive means weaker than that.

Sequences of proteins named here, by UniProt entry; tags and fusion partners are left off. A change or cut given only in a name is not applied to a line headed by its entry.
UniProt Q01638: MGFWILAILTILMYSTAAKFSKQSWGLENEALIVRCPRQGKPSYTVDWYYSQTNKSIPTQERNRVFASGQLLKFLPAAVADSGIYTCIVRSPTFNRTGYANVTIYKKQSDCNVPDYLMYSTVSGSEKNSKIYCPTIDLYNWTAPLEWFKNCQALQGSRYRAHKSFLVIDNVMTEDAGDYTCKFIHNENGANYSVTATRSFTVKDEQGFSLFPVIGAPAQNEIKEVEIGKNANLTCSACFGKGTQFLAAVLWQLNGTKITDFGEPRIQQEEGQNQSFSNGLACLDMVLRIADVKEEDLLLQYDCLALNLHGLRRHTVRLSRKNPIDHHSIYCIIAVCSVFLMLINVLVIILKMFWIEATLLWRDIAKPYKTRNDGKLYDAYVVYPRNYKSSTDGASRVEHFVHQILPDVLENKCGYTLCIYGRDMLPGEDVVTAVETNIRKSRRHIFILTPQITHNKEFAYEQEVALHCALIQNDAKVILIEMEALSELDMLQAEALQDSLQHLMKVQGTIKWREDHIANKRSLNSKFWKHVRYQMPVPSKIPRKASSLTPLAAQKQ

These compounds were tested against Interleukin-1 receptor-like 1 (Homo sapiens) (UniProt Q01638) (assay: blocks human ST2 binding to IL-33, primary screen, biochemical, AlphaLISA (AID 1259354)). Settings: AlphaLISA ST2-Fc/biotin-IL-33 interaction, 1 h; at 17 µM, hits give high values.
With `CNCC(=O)N(Cc1cccc(Cl)c1)C1CC1` the inhibition was inconclusive: 17%.
In the case of `CS(=O)(=O)N1CCN(C(=O)C2CCNCC2)C[C@@H]1C(=O)N[C@H](Cc1c[nH]c2ccccc12)C(N)=O`, the inhibition is reported as inconclusive: 11%.
With `Cc1ccsc1[C@@H]1CCN(Cc2c(C)nn(C)c2Cl)C[C@H]1O` the inhibition was “inactive”.
For `Cc1ccc(S(=O)(=O)N2Cc3ccccc3CC2C(=O)Nc2ccc(Cl)cc2)cc1` (stereo not drawn), the inhibition was “inactive”.
`O=C(Nc1ccccc1Cl)C(c1ccccc1)c1ccccc1` was tested, and the inhibition was inconclusive: 13%.
In the case of `COCCCN1C(=O)C(O)=C(C(=O)c2cccs2)C1c1ccc(OC)c(OC)c1` (stereo not drawn), the inhibition is reported as “inactive”.
With `CCOC(=O)CNC(=O)c1cn(CC(C)C)c(=O)c2cc(OC)c(OC)cc12` the inhibition was “inactive”.
With `CCC(=O)N1c2ccccc2-c2nnc(SC)nc2OC1c1ccc2c(c1)OCO2` (stereo not drawn) the inhibition was inconclusive: 15%.
In the case of `O=[N+]([O-])c1ccccc1CN1CCN(CC2CC3C=CC2C3)CC1` (stereo not drawn), the inhibition is reported as inconclusive: 17%.
In the case of `O=C(C1CC1)N1CCC(Oc2cccc(C(=O)N3CC4C[C@@H]5CC3C[C@H](C4)C5)c2)CC1`, the inhibition is reported as “inactive”.
In the case of `CS(=O)(=O)c1ccc(-n2ccnc2-c2ccccn2)cc1`, the inhibition is reported as inconclusive: 10%.
`Cc1ccc(CNC(=O)Nc2c(C)nc3nc[nH]n3c2=O)cc1` was tested, and the inhibition was inconclusive: 10%.
With `CCOc1cc(/C=C2\C(=O)Nc3ccc(Br)cc32)cc(Cl)c1O` the inhibition was active: 33%.
For `Cc1ccc(C(=O)Nc2ccccc2C(N)=O)cc1Cl`, the inhibition was “inactive”.
In the case of `Cc1ccc2c(c1)c1c(n2C)C(C#N)CCC1` (stereo not drawn), the inhibition is reported as inconclusive: 22%.
In the case of `Cn1cc(CC(=O)NC2CCCCCC2)c2ccccc21`, the inhibition is reported as “inactive”.
`Cc1nnsc1CN(C)C(=O)CCN1CCCCO1` was tested, and the inhibition was inconclusive: 26%.
`CC1=CC(C)(C)Nc2ccc(OC(=O)c3ccc4c(c3)OCO4)cc21` was tested, and the inhibition was active: 30%.
In the case of `COc1ccc(C(CC(=O)N2CCCN(C(C)=O)CC2)c2ccccc2)cc1` (stereo not drawn), the inhibition is reported as inconclusive: 14%.
With `CC(c1ccc(-c2cc(C(=O)NC3CC3)ccn2)cc1)N1CCOCC1` (stereo not drawn) the inhibition was inconclusive: 18%.
In the case of `COc1ccccc1C(CC(=O)c1ccccc1)CC(=O)c1ccccc1`, the inhibition is reported as inconclusive: 10%.
With `O=S1(=O)C=C(Nc2ccccc2)CC1` the inhibition was inconclusive: 13%.
For `O=C(NCc1ccc2c(c1)OCO2)C1CCC(=O)N1Cc1ccccc1Cl` (stereo not drawn), the inhibition was “inactive”.
In the case of `COc1ccc2ccc(=O)oc2c1CC=C(C)C`, the inhibition is reported as inconclusive: 24%.
In the case of `O=C1CC2CS(=O)(=O)CC2N1c1cc(Cl)ccc1Cl` (stereo not drawn), the inhibition is reported as “inactive”.
`Nc1cc(N)nc(SCC(=O)Nc2nc3c(s2)CCCC3)n1` was tested, and the inhibition was inconclusive: 22%.
With `O=C(O)CCC(=O)N[C@H]1CCN2C(=O)c3cc(-c4ccc(Cl)cc4)ccc3NC(=O)[C@H]12` the inhibition was inconclusive: 11%.
With `CNC(=O)Cn1nc(C(=O)N2CCOC(C(F)(F)F)C2)cc1C` (stereo not drawn) the inhibition was inconclusive: 15%.
In the case of `CCCCNC(=O)CCC1N=C2c3ccccc3N=C(SCc3ccccc3F)N2C1=O` (stereo not drawn), the inhibition is reported as “inactive”.
For `Cc1onc(-c2ccccc2Cl)c1C(=O)NCCn1c(C)cc2ccccc21`, the inhibition was inconclusive: 21%.
With `O=c1c(N2CCCC2)c(Cl)cnn1-c1ccccc1` the inhibition was inconclusive: 26%.
In the case of `O=C(O)c1cccc(Oc2ccccc2)c1`, the inhibition is reported as inconclusive: 14%.
For `CC(=O)N1N=C(c2ccccc2)OC12CCCCC2`, the inhibition was “inactive”.
For `Cc1oc(N=Cc2cn(Cc3ccccc3)c3ccccc23)c(C#N)c1C`, the inhibition was active: 46%.
With `O=S(=O)(NCCn1ccc2ccccc21)c1ccc(Cl)cc1` the inhibition was inconclusive: 18%.
For `Cc1ccc(C2(O)CCN(C(=O)COc3ncnc4ccccc34)CC2)nc1`, the inhibition was “inactive”.
In the case of `Nc1c2c(nc3ccccc13)CCCC2` (tested in a mixture with another compound), the inhibition is reported as “inactive”.
In the case of `O=C(C1CCCN(Cc2cccnc2)C1)N1CCCCCC1` (stereo not drawn), the inhibition is reported as inconclusive: 12%.
`O=C(CN1C(=O)/C(=C\c2ccc(Cl)cc2)Sc2ccccc21)NCc1ccccn1` was tested, and the inhibition was active: 42%.
`Cn1cc(I)c(C(=O)n2cc(Br)cn2)n1` was tested, and the inhibition was inconclusive: 17%.
`CC(C)(C)c1ccc(C(=O)N2CCN(c3ccc([N+](=O)[O-])c(NCc4ccco4)c3)CC2)cc1` was tested, and the inhibition was active: 31%.
`Cc1sc(N)nc1C12CC3CC(CC(C3)C1)C2` was tested, and the inhibition was inconclusive: 19%.
In the case of `O=C(Nc1nnc(-c2ccc(Cl)s2)o1)c1ccc(S(=O)(=O)N2CCCC2)cc1`, the inhibition is reported as “inactive”.
In the case of `N#CC1=C(N)OC2=C(C(=O)CC(c3ccccc3)C2)C1c1ccc(F)cc1` (stereo not drawn), the inhibition is reported as inconclusive: 14%.
With `Cc1[nH][nH]c(=O)c1C(c1ccco1)c1c(C)[nH][nH]c1=O` the inhibition was inconclusive: 23%.
For `O=C(Cc1ccc2c(c1)OCO2)N[C@H]1C[C@H]2C(=O)NCC(=O)N2C1`, the inhibition was inconclusive: 11%.
For `CCN1CCN(CC(=O)c2cc(C)n(-c3ccc(C)c(C)c3)c2C)CC1`, the inhibition was “inactive”.
For `Cc1ccc([N+](=O)[O-])cc1S(=O)(=O)n1nnc2ccccc21`, the inhibition was inconclusive: 15%.
For `O=[N+]([O-])C1=C(Nc2ccc(Cl)c(Cl)c2)CS(=O)(=O)C1`, the inhibition was inconclusive: 19%.
With `Cc1ccc(S(=O)(=O)c2ccc(-c3ccc([N+](=O)[O-])cc3)cc2)cc1` the inhibition was active: 31%.
For `COc1ccccc1C(=O)NCCn1cc(SCc2ccc(F)cc2)c2ccccc21`, the inhibition was inconclusive: 15%.
For `C=C(C)C(C)(O)C#CCN1CCCCC1` (stereo not drawn), the inhibition was inconclusive: 13%.
`Cc1nn(CCCC(=O)Nc2ccc(OC(F)(F)F)cc2)c(C)c1[N+](=O)[O-]` was tested, and the inhibition was “inactive”.
In the case of `COc1ccc2n[nH]c(CN3CCN(c4ncnc5ccccc45)CC3)c2c1`, the inhibition is reported as inconclusive: 12%.
For `N#CC1=C(N)OC(c2ccccc2)=C(n2cncn2)C1c1ccc(Br)cc1` (stereo not drawn), the inhibition was inconclusive: 19%.
`CCc1c(C)sc(NC(=O)c2ccc(Cl)c(Cl)c2)c1C(N)=O` was tested, and the inhibition was inconclusive: 23%.
With `Cc1nc2ccc3nc(NC(=O)c4ccc(F)c(F)c4)sc3c2s1` the inhibition was inconclusive: 25%.
For `O=C(Nc1ccc(Oc2ccccc2)nc1)C1CCN(C(=O)c2ccco2)CC1`, the inhibition was inconclusive: 11%.
In the case of `CSc1ccc(-c2nc(CN3CCc4c(c(CO)nn4C)C3)c(C)o2)cc1`, the inhibition is reported as “inactive”.
With `O=[N+]([O-])c1ccccc1-c1ccccc1I` the inhibition was inconclusive: 28%.
With `O=C(Nc1ccc2snnc2c1)N1CCOCC1` the inhibition was inconclusive: 25%.
For `O=c1[nH]nc(C2CC2)n1Cc1ccc(Cl)cc1Cl`, the inhibition was inconclusive: 11%.
In the case of `CN1CCc2cc(Cl)c(O)cc2[C@@H](c2ccccc2)C1`, the inhibition is reported as “inactive”.
For `O=C(/C=C/c1ccccn1)N1CCC2(CCCN(CCc3ccccc3)C2)C1` (stereo not drawn), the inhibition was inconclusive: 18%.
`CCN(CC)CC(=O)N(CC1CCN(CCOC)CC1)CC1CCCN1CC` (stereo not drawn) was tested, and the inhibition was “inactive”.
`O=C(CSCc1cccc(Br)c1)Nc1ccc2c(c1)OCCO2` was tested, and the inhibition was inconclusive: 12%.
For `O=C1N/C(=C\c2ccc(O)c(Cl)c2)C(=O)N1Cc1ccc(Cl)cc1`, the inhibition was “inactive”.
`CCOC(=O)C(C)Sc1nc2c([nH]c3ccccc32)c(=O)n1-c1cccc(OC)c1` (stereo not drawn) was tested, and the inhibition was inconclusive: 10%.
In the case of `FC(F)(F)c1ccc(N2CCOCC2)nc1`, the inhibition is reported as inconclusive: 19%.
For `COCC1(C(=O)N(C)Cc2cc(-c3cccs3)n[nH]2)CCC1`, the inhibition was “inactive”.
In the case of `Nc1nonc1-c1noc(COc2ccc(Cl)cc2)n1`, the inhibition is reported as “inactive”.
With `Cc1ccc(Nc2nc3ccccc3c(=O)s2)cc1` the inhibition was “inactive”.
With `CCSc1ncc(-c2nccn2-c2cccc(NC(C)=O)c2)cn1` the inhibition was inconclusive: 13%.
In the case of `Cc1nn(CCC#N)c(C)c1[C@@H]1C=C[C@@H](NC(=O)Nc2ccccc2)C1`, the inhibition is reported as inconclusive: 12%.
In the case of `CCC(=O)N1CCc2cc(Br)cc(S(=O)(=O)CCC(=O)Nc3nccs3)c21`, the inhibition is reported as inconclusive: 10%.
In the case of `O=C(c1cn2ccccc2n1)N1CCC(N2CCCC(C(=O)N3CCCC3)C2)CC1` (stereo not drawn), the inhibition is reported as inconclusive: 18%.
With `O=C(CSc1nnc(-c2ccc3c(c2)OCCO3)o1)N1CCc2ccccc21` the inhibition was “inactive”.
For `Cc1ccc2nc(-c3ccccn3)c(Nc3ccccc3)n2c1`, the inhibition was inconclusive: 11%.
For `Cc1ccc2oc(=O)c(C=C(O)c3cccs3)nc2c1`, the inhibition was inconclusive: 11%.
With `COc1cccc2c1OCC(C(=O)N(C)Cc1noc(CC(C)C)n1)C2` (stereo not drawn) the inhibition was “inactive”.
For `CCc1ccc2cc(-c3ccc(Cl)cc3)cn2c1`, the inhibition was “inactive”.
For `COc1cc(OC)cc(C(=O)N2CCN=C2SCc2ccc(Br)cc2)c1`, the inhibition was “inactive”.
`O=C(NC1CC(=O)N(Cc2ccccc2)C1)c1cc2n(n1)CCNC2` (stereo not drawn) was tested, and the inhibition was inconclusive: 13%.
With `Cc1cc(C)c(NC(=O)c2ccc(F)cc2)c(C)c1` the inhibition was inconclusive: 14%.
With `O=C1C2CCCCC2C(=O)N1CN1CCOCC1` (stereo not drawn) the inhibition was “inactive”.
In the case of `C[C@@H]1O[C@@H](c2c(O)c([C@@H]3O[C@H](CO)[C@@H](O)[C@H](O)[C@H]3O)c(O)c3c(=O)cc(-c4ccc(O)cc4)oc23)[C@H](O)[C@H](O)[C@H]1O`, the inhibition is reported as “inactive”.
With `CC(C)CCNS(=O)(=O)c1cccc2cccnc12` the inhibition was “inactive”.
`C=CCn1c(=O)/c(=C2/Sc3ccccc3N2C)s/c1=C1/C(=O)N(C2CCCCC2)N=C1C` was tested, and the inhibition was “inactive”.
In the case of `O=C(Nc1nc(-c2ccncc2)cs1)c1ccc(S(=O)(=O)N2CCCCC2)cc1`, the inhibition is reported as inconclusive: 12%.
For `CCN(CC)S(=O)(=O)c1ccc(NC(=O)C2CC2)cc1`, the inhibition was “inactive”.
With `O=C(NCc1cccnc1)c1ccc2c(c1)N(Cc1ccc(F)cc1)C(=O)CS2` the inhibition was inconclusive: 11%.
For `C[C@@H](C(=O)NCc1cccnc1Oc1ccc(F)cc1F)n1cnnn1`, the inhibition was “inactive”.
For `CC(C)Nc1ccnc(-c2ccc3c(c2)OCO3)n1`, the inhibition was “inactive”.
In the case of `COc1ccc(CCN(C)S(=O)(=O)NCc2ccccc2)cc1OC`, the inhibition is reported as inconclusive: 19%.
For `O=C(Nc1cccnc1)c1oc(=O)c2ccccc2c1-c1ccccc1`, the inhibition was “inactive”.
With `CNc1nc(OCC(F)(F)F)nc(N2CCCC[C@H]2c2cccnc2)n1` the inhibition was inconclusive: 23%.
With `CCOC(=O)c1c[nH]c2cc3c(cc2c1=O)OCCO3` the inhibition was “inactive”.
With `COc1ccc2nc(N3CCCC(C(=O)N4CCN(c5ccccn5)CC4)C3)sc2c1` (stereo not drawn) the inhibition was inconclusive: 10%.
